Source: PubChem BioAssay AID504444 (National Center for Advancing Translational Sciences (NCATS), 2011)
Out of some 360,000 compounds screened, about 7,500 (2.1%) were called active. Inconclusive results, whose numbers are uncertain, are shown with a selection of clear calls. Calls follow the shape of the dose curve; as a rule, active = well fitted inhibition curve with a large enough effect; inconclusive = small, poorly fitted or top-dose-only effect, or effect the other way; inactive = flat fitted curve, though single readings scatter. Where the call is inconclusive, the potency comes from a doubtful curve fit.

test: Nrf2 qHTS screen for inhibitors; settings: A549 ARE-Fluc reporter, luciferase luminescence, 18-24 h; activity change, negative = inhibition: at 46 µM (top of the series); also: nearly all actives have a fitted effect of over 60% in size
Summary of the method: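 In this cell-based qHTS, ARE-driven firefly luciferase in A549 cells reports Nrf2 activity; the luminescent signal after BugLite lysis is the measured value, with a prior CellTiter-Fluor read for cell health.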
% is scaled to controls: 0 for no effect and ±100 for the full control effect; potency is read from the fitted curve at half-maximal effect.

Compound	Potency	activity change, negative = inhibition
CC(=O)Nc1ccc(NC(=O)c2ccc(C)c(S(=O)(=O)Nc3cccc(C)c3)c2)cc1	inconclusive: 18.4 µM [falling, single point]	–
C=CC(=O)Nc1ccc(Nc2nc(NC3CCC(N(C)C)CC3)nc3c2ncn3C(C)C)cc1 (stereo not given)	active: 2.59 µM	–
CCOC(=O)c1nnc2c(-c3ccc(Cl)cc3)c(C)nn2c1C	–	inactive: -12.4%
Cc1c(C(=O)NCCN(C)C)sc2nc3n(c(=O)c12)CCC3	–	inactive: 6.72%
CCOc1ccc(N=Cc2c(C)[nH]n(-c3nc4ccccc4[nH]3)c2=O)cc1	inconclusive: 0.0461 µM [falling, full curve, poor fit]	–
Oc1ccccc1OCc1nc2ccccc2s1	inconclusive: 29.1 µM [activator, single point]	–
CCOc1ccc(NS(=O)(=O)c2ccc(C)c(C(N)=O)c2)cc1	inconclusive: 18.4 µM [falling, partial curve, poor fit]	–
Cc1ccc(Sc2ccc(N)cn2)cc1	inconclusive: 32.6 µM [activator, partial curve, poor fit]	–
CC(=O)N1CCCc2cc(S(=O)(=O)N3CCCC(C(=O)N4CCN(c5cc(C)ccc5C)CC4)C3)ccc21 (stereo not given)	active: 7.31 µM	–
Cc1ccc(C(=O)COC(=O)CCC(=O)Nc2ccc(Oc3cc(C)ccc3C(C)C)cc2)cc1	–	inactive: -3.92%
Cc1ccc(COc2ccc(C(=O)NN)cc2)cc1	inconclusive: 18.4 µM [activator, single point]	–
C=CC[C@@H](Cc1ccc(F)cc1)C(=O)OC[C@@H]1CCCN1C(=O)[C@H](CC=C)CC(=O)N(CCO)Cc1ccccc1	inconclusive: 18.4 µM [falling, single point]	–
Cc1ccc(Nc2nc(COC(=O)COc3ccc(C=O)cc3)cs2)cc1	inconclusive: 6.51 µM [activator, partial curve]	–
CCOc1ccc(Nc2oc(-c3cccc(Cl)c3)nc2C#N)cc1	inconclusive: 23.1 µM [falling, single point]	–
CCOc1cc(C(=O)N/N=C/C2CC=CCC2)cc(OCC)c1OCC (stereo not given)	inconclusive: 0.231 µM [activator, full curve, poor fit]	–
O=C(Cc1ccccc1)Nc1cccc(-c2nnc(-c3ccco3)o2)c1	inconclusive: 23.1 µM [falling, partial curve, poor fit]	–
Cc1cccc(C2N=C(N)Nc3nc4ccccc4n32)c1 (stereo not given)	inactive	–
Cc1c(C(=O)Oc2cccc3cccnc23)oc2ccccc12	–	inactive: 14%
O=C(OCc1c(F)cccc1Cl)c1cc([N+](=O)[O-])ccc1N1CCOCC1	inconclusive: 29.1 µM [falling, single point]	–
O=C(Nc1cccc(Cl)c1)c1cc(N=Nc2ccc([N+](=O)[O-])cc2Cl)ccc1O	–	inactive: -24.5%
Cc1cc(-n2c(C)cc(C(=O)CSc3ccccn3)c2C)no1	inconclusive: 0.82 µM [activator, full curve, poor fit]	–
Cc1cnc(C(=O)NNC(=O)c2ccc(Br)cc2)cn1	inconclusive: 25.9 µM [falling, partial curve]	–
CC(=O)c1ccc(NC2=C(N3CCOCC3)C(=O)c3ccccc3C2=O)cc1	inconclusive: 29.1 µM [falling, single point]	–

Reprinted at random: 2 entries already listed.
Compound	Potency	activity change, negative = inhibition
CCOC(=O)c1nnc2c(-c3ccc(Cl)cc3)c(C)nn2c1C	–	inactive: -12.4%
CCOc1cc(C(=O)N/N=C/C2CC=CCC2)cc(OCC)c1OCC (stereo not given)	inconclusive: 0.231 µM [activator, full curve, poor fit]	–

More entries follow.

Compound	Potency	activity change, negative = inhibition
CCOCCCn1c(=O)c(NC(=O)c2ccc(OCC)cc2)c2n(c1=S)CCCCC2	–	inactive: 4.4%
O=C(c1ccc2ccccc2c1)C1CCCN(C(=O)CCn2cnnn2)C1 (stereo not given)	–	inactive: 3.54%
O=C(CSc1nnc(-c2ccco2)o1)c1ccccc1Cl	inconclusive: 5.8 µM [falling, partial curve, poor fit]	–
CCc1ccccc1NC(=O)CN1C(=O)C2CCCN2c2ncc(Cl)cc21 (stereo not given)	–	inactive: -17.3%
COc1cccc(-c2nnc3n2N=C(c2c(OC)cccc2OC)CS3)c1	–	inactive: -8.79%
COc1ccccc1NC(=O)N(Cc1cccs1)Cc1cc2cc3c(cc2[nH]c1=O)OCO3	inconclusive: 20.6 µM [falling, single point]	–
COc1ccccc1NC(=O)c1ccc2nsnc2c1	inconclusive: 4.61 µM [activator, partial curve, poor fit]	–
Cc1ccc(Nc2nnc(SCc3ccccc3)s2)cc1	inconclusive: 18.4 µM [activator, partial curve, poor fit]	–
CN(C)CCNC(=O)c1csc(Nc2cccc3ccccc23)n1	inconclusive: 20.6 µM [activator, partial curve]	–
Cc1cc(=O)oc2cc(OCC(=O)N3CCN(C(=O)C4COc5ccccc5O4)CC3)ccc12 (stereo not given)	–	inactive: -19.6%
COC(=O)c1ccc(/C=C2/SC(=S)N(CCCC(=O)Nc3ccc(O)cc3)C2=O)cc1	–	inactive: 17.6%
Oc1ccccc1-c1nc(N2CCN(Cc3ccccc3)CC2)c2ccccc2n1	inconclusive: 13 µM [activator, partial curve, poor fit]	–
CCc1ccc(C(=O)c2cn(CC(=O)Nc3ccc4c(c3)OCO4)c3ccc(F)cc3c2=O)cc1	inconclusive: 29.1 µM [falling, single point]	–
O=C(NCCc1ccccc1)c1ccc2c(c1)OCCCO2	active: 2.06 µM	–
O=C(Cc1ccccc1)NCC(=O)N1CCc2ccccc2C1	inconclusive: 14.6 µM [activator, partial curve, poor fit]	–
Fc1ccc(COc2ccc(Br)cc2CNCc2ccncc2)cc1	inconclusive: 16.4 µM [falling, partial curve]	–
Cn1c(=O)oc2cc(S(=O)(=O)NC(Cc3ccccc3)C(=O)NCc3ccccc3Cl)ccc21 (stereo not given)	–	inactive: -8.82%
CN(C)c1ccc(NC(=S)N2CCN(c3ncc(C(F)(F)F)cc3Cl)CC2)cc1	inconclusive: 0.259 µM [falling, partial curve, poor fit]	–
Nc1cc(Nc2ccccc2)ccn1	–	inactive: 5.23%
Cc1cc(=O)[nH]c2nnc(-c3ccc(Br)cc3)n12	inconclusive: 18.4 µM [falling, partial curve, poor fit]	–
Clc1ccc2nc(-c3cccc(SC4CCCCC4)c3)c(NCc3ccccc3)n2c1	–	inactive: -26%
CCn1c(C)nc2cc(-c3nnc(-c4c(-c5ccccc5)noc4C)o3)ccc21	–	inactive: -10.8%
